# Test results reported in article PMC4385862.
# Sequences of proteins named here, by UniProt entry; tags and fusion partners are left off. A change or cut given only in a name is not applied to a line headed by its entry.
# UniProt P05556: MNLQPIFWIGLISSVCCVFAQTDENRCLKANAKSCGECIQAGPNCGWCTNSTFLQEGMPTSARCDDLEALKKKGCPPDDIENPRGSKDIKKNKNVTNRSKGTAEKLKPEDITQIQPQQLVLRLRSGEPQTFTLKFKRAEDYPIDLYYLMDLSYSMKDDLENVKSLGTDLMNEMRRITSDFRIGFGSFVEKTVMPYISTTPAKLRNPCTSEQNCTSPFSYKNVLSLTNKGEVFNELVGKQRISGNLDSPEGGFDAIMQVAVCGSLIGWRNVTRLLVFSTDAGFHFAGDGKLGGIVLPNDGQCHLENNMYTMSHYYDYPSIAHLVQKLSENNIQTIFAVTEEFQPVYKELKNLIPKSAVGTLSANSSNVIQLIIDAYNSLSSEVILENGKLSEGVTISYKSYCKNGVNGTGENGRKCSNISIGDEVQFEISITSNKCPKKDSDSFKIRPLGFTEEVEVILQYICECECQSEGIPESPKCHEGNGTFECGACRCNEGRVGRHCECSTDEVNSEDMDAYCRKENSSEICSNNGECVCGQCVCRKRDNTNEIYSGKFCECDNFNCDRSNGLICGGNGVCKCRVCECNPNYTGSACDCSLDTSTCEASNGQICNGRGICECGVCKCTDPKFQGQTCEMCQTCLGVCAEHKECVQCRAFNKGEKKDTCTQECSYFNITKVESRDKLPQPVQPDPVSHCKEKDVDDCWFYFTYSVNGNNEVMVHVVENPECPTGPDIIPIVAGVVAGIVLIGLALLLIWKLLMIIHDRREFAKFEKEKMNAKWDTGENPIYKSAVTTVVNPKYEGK
# These are yes or no findings as the source states them, for the method shown. In cells and extracts the contact can be indirect. Some binding calls cover weakened binding; strength is not graded here. For some of these results: Sequences can lack the tags named with a protein.
# T1: chloride channel-3 (ClC-3) (human (endogenous in HeLa)) (UniProt P51790)
# T1 sequence: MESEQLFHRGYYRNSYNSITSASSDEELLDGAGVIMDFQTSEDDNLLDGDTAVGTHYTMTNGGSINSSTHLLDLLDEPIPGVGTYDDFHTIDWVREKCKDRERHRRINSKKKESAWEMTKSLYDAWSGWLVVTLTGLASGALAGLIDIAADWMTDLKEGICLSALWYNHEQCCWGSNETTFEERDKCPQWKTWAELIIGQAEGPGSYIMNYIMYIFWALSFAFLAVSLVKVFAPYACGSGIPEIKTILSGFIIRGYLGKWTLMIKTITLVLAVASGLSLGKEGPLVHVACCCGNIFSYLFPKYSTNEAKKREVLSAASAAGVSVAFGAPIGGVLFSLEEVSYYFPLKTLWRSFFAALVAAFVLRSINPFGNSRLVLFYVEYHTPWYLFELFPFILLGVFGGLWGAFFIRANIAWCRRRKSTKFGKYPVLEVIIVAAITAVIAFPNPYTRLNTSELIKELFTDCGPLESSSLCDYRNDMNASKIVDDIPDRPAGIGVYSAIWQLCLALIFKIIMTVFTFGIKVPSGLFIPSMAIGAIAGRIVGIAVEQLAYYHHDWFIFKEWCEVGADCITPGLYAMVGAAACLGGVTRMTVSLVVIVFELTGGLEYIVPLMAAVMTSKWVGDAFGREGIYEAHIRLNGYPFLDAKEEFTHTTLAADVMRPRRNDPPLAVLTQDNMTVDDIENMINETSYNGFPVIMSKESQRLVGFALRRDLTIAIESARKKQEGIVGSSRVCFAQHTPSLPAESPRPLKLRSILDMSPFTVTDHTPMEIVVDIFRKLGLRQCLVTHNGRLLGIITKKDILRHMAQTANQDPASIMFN
# B1: Keratin 18 (K18) (protein, UniProt P05783 1-430)
# chain: MSFTTRSTFSTNYRSLGSVQAPSYGARPVSSAASVYAGAGGSGSRISVSRSTSFRGGMGSGGLATGIAGGLAGMGGIQNEKETMQSLNDRLASYLDRVRSLETENRRLESKIREHLEKKGPQVRDWSHYFKIIEDLRAQIFANTVDNARIVLQIDNARLAADDFRVKYETELAMRQSVENDIHGLRKVIDDTNITRLQLETEIEALKEELLFMKKNHEEEVKGLQAQIASSGLTVEVDAPKSQDLAKIMADIRAQYDELARKNREELDKYWSQQIEESTTVVTTQSAEVGAAETTLTELRRTVQSLEIDLDSMRNLKASLENSLREVEARYALQMEQLNGILLHLESELAQTRAEGQRQAQEYEALLNIKVKLEAEIATYRRLLEDGEDFNLGDALDSSNSMQTIQKTTTRRIVDGKVVSETNDTKVLRH
# B2: Ser-52 phosphorylated K18 (K18 pS52) (protein, UniProt P05783 1-430)
# chain: B1 chain
# modifications: phosphoserine at 52
# B3: wild-type (WT) GFP-K18 (protein, UniProt P05783 1-430)
# chain: B1 chain
# Key:
# [1] = biological target: T1, chloride channel-3 (ClC-3) (human (endogenous in HeLa)); test: co-IP; endogenous proteins in extract of EGF-treated (ruffling) HeLa cells; Pierce Co-Immunoprecipitation Kit, 50 μg antibody covalently immobilised on resin, lysate pre-cleared, 12 h at 4°C; done in both directions
# [2] = biological target: T1, chloride channel-3 (ClC-3) (human (endogenous in HeLa)); test: as above; remark: listed apart in the source
# [3] = biological target: β1 integrin (human (endogenous in HeLa)) (UniProt P05556); test: as above
# [4] = biological target: T1, chloride channel-3 (ClC-3) (human (endogenous in HeLa)); test: co-IP; EGF-stimulated HeLa cells transfected with wild-type or Ser→Ala mutant GFP-K18; endogenous ClC-3 and β1 integrin
# [5] = biological target: β1 integrin (human (endogenous in HeLa)) (UniProt P05556); test: as above
Molecule,binding [1],binding [2],binding [3],binding [4],binding [5]
β1 integrin (from UniProt P05556 21-798) (receptor),no binding,,,,
B1,,binds,binds,,
B2,,binds,binds,,
B3,,,,binds,binds
